From article PMC9254885 come the findings set out here.

Test [1] deals with T1, FLAG-tagged CPS1 (carbamoyl phosphate synthetase 1) (human) (UniProt P31327).
T1 sequence: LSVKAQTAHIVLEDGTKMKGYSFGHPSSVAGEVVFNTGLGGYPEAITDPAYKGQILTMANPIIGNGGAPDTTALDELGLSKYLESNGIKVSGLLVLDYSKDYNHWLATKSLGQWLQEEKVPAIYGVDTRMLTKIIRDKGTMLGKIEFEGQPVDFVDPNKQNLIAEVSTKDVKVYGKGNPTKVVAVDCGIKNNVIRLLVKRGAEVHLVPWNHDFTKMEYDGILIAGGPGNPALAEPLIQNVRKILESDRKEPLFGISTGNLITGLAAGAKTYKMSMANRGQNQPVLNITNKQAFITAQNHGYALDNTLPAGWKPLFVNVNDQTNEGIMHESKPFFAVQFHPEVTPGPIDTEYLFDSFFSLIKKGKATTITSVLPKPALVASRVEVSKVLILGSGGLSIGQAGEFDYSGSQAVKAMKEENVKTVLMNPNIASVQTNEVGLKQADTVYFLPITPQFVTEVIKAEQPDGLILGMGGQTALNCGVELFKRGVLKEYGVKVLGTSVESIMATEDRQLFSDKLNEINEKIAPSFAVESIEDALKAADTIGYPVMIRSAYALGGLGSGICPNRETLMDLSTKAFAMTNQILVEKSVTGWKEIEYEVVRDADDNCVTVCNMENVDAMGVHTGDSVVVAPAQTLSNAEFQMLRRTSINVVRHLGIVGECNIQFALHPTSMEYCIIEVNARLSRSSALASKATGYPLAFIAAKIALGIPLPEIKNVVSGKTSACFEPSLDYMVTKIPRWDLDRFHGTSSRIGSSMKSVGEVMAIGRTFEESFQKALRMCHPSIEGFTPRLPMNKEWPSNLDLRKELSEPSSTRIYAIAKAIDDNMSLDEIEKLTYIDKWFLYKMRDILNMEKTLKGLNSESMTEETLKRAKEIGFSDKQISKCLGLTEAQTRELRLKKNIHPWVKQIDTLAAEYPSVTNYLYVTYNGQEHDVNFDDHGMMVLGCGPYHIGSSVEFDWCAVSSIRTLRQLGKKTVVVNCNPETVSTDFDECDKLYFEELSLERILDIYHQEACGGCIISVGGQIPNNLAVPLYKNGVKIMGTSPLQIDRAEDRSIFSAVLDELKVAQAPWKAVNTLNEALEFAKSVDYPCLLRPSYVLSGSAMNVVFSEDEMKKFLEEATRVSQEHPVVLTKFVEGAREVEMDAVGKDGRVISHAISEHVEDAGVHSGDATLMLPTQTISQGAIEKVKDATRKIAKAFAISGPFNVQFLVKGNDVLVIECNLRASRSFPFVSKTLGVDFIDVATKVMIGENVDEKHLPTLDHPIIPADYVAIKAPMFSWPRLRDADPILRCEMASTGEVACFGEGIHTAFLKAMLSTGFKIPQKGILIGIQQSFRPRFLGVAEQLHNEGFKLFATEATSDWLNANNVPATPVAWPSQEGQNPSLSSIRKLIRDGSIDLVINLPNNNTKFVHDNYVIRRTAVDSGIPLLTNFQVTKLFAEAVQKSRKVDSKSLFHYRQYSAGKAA
Briefly: co-IP; 293T cells transfected with Myc-tagged OGT and/or FLAG-tagged CPS1; co-IP with anti-Myc and anti-FLAG antibody.

Test [2] has as its target T2, endogenous CPS1 (HepG2 cells) (human (endogenous in HepG2)) (UniProt P31327).
T2 sequence: T1 sequence
The test can be described thus: co-IP; HepG2 cells cultured with low and high glucose for 16 h; IP of endogenous proteins with anti-CPS1 and anti-OGT antibody.

Test [3] concerns the target T3, endogenous OGT (HepG2 cells) (human (endogenous in HepG2)) (UniProt O15294).
T3 sequence: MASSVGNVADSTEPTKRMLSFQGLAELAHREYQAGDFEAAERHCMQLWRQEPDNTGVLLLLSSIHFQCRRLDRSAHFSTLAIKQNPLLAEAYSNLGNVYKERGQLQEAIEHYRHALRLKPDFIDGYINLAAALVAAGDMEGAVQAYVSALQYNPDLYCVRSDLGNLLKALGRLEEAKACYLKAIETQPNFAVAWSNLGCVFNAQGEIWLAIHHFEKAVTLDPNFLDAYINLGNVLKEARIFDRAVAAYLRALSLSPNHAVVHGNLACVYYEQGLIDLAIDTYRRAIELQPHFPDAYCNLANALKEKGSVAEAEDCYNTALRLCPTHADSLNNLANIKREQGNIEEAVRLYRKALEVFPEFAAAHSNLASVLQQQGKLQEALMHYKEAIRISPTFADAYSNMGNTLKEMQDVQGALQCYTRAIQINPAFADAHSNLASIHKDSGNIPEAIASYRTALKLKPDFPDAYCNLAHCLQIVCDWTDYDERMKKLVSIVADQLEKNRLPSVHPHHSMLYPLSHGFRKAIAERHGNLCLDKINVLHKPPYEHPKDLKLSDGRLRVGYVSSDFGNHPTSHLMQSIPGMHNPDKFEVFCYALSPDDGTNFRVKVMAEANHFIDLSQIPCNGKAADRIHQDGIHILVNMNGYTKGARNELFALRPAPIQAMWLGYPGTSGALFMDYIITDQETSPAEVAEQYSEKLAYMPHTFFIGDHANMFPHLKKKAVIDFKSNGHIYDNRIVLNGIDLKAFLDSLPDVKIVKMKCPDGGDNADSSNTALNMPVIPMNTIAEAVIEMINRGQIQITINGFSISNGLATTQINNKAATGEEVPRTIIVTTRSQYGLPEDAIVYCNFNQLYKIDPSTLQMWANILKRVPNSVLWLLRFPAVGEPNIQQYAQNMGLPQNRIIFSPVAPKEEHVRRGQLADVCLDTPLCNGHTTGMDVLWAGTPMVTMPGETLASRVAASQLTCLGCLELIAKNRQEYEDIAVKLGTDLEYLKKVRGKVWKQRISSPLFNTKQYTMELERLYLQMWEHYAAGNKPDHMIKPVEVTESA
The test is described as above.

Results are given in words; binding and its absence hold for the method and conditions named. Binding seen in cells or lysates may run through a third protein. Some entries that bind do so weakly or less than the wild type. For part of these data: Where a sequence is shown, tags or fusion partners need not be part of it.

B1: Myc-tagged OGT (O-GlcNAc transferase), wild type (enzyme, UniProt O15294 1-1046)
chain: T3 sequence
Turning to B1, the binding result in test [1] is given as “binds”.

B2: endogenous OGT (HepG2 cells) (enzyme, UniProt O15294 1-1046)
chain: T3 sequence
Take B2: the binding result in test [2] is listed as “binds”.

B3: endogenous CPS1 (HepG2 cells) (enzyme, UniProt P31327 39-1500)
chain: T1 sequence
Take B3: in test [3], the binding result is “binds”.
